Source: publication PMC4011676
No constants are given. Whether binding was seen depends on the method and setting. In cells and extracts the contact can be indirect. Some entries that bind do so weakly or less than the wild type.

By UniProt entry, the sequences of proteins in these tests, tags left out. Where a name states a change or a piece, a line headed by the entry shows the natural chain unless it says otherwise.
UniProt Q13315: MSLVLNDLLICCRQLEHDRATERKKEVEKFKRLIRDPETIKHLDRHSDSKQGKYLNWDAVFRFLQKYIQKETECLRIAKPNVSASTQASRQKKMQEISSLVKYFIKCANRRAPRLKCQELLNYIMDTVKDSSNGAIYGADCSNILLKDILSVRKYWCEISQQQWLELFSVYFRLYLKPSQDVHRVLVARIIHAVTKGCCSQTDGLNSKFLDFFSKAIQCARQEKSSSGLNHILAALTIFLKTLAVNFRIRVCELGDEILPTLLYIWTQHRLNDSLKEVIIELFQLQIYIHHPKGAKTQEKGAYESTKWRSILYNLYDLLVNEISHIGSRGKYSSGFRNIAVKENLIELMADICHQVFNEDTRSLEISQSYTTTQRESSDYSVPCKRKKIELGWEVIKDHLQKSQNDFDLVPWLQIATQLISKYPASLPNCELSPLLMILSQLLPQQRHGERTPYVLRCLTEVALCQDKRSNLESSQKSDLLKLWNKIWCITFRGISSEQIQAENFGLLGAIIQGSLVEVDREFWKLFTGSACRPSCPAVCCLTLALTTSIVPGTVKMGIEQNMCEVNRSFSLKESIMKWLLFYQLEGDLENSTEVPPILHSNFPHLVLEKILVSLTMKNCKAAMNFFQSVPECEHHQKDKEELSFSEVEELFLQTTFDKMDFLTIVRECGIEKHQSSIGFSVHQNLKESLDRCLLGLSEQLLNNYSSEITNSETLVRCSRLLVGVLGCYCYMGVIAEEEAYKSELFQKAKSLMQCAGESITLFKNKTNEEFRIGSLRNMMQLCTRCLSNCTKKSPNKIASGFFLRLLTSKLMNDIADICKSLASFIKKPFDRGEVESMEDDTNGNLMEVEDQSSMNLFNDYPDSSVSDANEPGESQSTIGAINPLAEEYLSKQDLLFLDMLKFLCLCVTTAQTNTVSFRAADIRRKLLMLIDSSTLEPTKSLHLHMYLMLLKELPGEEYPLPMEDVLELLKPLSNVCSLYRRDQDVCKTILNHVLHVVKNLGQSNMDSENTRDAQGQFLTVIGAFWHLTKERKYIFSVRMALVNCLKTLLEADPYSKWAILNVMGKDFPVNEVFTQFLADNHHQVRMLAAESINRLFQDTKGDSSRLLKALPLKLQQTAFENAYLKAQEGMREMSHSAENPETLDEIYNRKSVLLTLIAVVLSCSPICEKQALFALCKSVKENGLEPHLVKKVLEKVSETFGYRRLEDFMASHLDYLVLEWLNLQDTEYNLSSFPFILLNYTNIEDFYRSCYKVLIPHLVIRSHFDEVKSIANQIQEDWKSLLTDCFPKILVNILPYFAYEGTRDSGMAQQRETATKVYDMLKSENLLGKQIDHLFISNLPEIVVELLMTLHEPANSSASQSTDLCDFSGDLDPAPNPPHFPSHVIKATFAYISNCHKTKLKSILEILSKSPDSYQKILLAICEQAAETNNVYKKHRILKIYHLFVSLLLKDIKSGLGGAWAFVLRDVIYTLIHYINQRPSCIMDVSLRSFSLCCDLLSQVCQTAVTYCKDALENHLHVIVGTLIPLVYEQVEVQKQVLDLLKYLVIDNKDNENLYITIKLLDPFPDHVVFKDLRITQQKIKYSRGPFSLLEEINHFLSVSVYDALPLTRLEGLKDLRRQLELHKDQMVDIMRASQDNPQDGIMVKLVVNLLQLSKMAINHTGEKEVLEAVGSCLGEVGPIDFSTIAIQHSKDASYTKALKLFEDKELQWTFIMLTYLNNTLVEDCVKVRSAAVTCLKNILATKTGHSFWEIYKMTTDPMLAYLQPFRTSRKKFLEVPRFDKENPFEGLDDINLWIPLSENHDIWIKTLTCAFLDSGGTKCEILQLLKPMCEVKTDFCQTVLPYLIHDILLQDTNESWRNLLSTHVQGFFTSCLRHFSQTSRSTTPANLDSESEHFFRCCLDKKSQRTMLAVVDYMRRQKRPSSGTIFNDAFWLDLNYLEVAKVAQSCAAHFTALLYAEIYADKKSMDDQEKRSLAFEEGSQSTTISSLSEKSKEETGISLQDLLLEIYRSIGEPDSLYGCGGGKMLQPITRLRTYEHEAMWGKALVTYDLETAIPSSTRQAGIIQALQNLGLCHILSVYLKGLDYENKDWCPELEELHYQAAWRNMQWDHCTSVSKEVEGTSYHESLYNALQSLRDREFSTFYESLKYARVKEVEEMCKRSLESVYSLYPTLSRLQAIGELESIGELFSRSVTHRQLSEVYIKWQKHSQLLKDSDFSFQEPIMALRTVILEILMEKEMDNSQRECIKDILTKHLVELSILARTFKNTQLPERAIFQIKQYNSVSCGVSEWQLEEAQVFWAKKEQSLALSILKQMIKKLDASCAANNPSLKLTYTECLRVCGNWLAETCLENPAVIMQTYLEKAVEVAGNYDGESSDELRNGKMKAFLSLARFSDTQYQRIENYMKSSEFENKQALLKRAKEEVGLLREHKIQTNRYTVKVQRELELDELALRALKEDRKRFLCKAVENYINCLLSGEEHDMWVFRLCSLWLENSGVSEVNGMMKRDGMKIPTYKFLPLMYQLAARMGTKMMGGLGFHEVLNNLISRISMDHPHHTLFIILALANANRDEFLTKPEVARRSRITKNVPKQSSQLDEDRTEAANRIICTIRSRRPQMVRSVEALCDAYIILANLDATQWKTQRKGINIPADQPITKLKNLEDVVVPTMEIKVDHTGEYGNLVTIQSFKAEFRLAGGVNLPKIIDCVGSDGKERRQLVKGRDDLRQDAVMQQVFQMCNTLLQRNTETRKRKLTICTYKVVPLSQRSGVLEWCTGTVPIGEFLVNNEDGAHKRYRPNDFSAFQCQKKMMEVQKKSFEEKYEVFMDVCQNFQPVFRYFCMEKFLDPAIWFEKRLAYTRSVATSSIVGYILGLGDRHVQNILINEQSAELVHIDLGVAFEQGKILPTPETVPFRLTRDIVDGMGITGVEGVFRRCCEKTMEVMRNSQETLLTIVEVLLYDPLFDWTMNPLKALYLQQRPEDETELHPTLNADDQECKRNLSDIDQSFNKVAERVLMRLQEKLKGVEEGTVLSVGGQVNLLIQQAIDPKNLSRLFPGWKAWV
UniProt O60264: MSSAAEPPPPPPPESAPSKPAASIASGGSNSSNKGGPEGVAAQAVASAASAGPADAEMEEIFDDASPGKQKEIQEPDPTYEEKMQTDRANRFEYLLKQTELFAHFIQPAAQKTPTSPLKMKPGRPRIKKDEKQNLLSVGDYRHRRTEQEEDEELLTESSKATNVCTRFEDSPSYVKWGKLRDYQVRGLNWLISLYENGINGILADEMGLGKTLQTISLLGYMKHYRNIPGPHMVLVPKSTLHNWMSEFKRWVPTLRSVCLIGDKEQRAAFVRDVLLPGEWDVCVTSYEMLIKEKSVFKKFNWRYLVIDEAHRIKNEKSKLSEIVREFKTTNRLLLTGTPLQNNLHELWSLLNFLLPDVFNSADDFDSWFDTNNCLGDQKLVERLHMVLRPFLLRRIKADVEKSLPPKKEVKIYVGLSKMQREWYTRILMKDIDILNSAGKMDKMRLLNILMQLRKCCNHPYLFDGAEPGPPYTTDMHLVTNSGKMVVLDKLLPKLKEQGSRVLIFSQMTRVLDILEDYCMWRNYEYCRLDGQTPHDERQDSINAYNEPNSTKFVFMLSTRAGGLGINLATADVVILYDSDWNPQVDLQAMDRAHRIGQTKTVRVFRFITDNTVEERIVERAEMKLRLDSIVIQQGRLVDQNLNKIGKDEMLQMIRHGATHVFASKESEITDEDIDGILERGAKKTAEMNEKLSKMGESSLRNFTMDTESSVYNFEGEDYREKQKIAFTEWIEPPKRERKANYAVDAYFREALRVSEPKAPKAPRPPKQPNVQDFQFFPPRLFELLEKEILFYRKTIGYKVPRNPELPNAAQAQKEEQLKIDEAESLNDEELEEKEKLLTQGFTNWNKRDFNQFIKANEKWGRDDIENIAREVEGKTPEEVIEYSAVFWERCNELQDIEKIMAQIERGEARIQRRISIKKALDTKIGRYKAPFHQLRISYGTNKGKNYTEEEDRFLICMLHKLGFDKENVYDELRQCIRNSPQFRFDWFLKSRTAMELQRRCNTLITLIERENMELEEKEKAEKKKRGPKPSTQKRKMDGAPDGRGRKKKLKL
UniProt P83916: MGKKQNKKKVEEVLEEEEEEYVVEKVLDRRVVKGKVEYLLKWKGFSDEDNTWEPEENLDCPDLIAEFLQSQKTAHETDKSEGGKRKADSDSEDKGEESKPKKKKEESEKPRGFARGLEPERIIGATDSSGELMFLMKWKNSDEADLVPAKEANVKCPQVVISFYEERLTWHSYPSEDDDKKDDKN
UniProt Q9NRL2: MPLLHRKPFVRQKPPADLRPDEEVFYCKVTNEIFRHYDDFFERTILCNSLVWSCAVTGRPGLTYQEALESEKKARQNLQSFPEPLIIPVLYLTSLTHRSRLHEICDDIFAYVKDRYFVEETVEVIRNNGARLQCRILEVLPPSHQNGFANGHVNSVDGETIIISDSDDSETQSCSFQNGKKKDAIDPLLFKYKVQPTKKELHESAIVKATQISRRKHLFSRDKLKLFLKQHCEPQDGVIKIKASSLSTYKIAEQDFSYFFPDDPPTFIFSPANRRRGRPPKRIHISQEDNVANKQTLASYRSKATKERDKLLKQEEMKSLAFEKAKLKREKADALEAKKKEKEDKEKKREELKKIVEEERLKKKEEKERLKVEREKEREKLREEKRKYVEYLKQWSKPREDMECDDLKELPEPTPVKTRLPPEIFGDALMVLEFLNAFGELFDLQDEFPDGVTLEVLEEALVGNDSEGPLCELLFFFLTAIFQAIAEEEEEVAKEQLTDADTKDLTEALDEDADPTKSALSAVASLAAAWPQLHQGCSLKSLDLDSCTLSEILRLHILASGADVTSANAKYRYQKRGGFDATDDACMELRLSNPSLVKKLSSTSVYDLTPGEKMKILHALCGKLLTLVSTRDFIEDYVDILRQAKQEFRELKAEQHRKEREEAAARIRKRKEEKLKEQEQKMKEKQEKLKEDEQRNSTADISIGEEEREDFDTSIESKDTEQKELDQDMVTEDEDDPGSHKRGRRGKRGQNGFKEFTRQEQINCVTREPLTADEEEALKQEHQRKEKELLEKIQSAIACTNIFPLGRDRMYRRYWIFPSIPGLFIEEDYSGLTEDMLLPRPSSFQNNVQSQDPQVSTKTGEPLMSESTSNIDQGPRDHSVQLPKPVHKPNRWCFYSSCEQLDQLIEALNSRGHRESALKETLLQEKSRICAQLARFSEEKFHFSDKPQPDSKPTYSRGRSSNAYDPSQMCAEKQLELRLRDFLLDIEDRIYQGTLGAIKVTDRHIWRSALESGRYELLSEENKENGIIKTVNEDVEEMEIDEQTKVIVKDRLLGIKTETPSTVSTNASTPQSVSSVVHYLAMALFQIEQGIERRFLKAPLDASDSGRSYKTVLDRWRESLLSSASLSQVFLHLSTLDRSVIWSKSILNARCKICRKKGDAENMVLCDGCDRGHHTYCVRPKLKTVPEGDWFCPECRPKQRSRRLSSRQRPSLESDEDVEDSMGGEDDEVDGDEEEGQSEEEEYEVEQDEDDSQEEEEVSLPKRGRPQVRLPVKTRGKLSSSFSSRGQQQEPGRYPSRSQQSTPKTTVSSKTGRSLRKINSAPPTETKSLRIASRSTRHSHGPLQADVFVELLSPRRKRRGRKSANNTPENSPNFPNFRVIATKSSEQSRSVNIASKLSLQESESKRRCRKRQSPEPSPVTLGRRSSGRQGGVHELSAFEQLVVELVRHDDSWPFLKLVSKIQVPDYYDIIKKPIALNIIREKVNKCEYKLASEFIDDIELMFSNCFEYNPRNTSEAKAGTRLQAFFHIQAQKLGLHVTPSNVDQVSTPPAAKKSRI

T1: RSF1 (human Remodelling and Spacing Factor 1) (human) (UniProt Q96T23)
T1 sequence: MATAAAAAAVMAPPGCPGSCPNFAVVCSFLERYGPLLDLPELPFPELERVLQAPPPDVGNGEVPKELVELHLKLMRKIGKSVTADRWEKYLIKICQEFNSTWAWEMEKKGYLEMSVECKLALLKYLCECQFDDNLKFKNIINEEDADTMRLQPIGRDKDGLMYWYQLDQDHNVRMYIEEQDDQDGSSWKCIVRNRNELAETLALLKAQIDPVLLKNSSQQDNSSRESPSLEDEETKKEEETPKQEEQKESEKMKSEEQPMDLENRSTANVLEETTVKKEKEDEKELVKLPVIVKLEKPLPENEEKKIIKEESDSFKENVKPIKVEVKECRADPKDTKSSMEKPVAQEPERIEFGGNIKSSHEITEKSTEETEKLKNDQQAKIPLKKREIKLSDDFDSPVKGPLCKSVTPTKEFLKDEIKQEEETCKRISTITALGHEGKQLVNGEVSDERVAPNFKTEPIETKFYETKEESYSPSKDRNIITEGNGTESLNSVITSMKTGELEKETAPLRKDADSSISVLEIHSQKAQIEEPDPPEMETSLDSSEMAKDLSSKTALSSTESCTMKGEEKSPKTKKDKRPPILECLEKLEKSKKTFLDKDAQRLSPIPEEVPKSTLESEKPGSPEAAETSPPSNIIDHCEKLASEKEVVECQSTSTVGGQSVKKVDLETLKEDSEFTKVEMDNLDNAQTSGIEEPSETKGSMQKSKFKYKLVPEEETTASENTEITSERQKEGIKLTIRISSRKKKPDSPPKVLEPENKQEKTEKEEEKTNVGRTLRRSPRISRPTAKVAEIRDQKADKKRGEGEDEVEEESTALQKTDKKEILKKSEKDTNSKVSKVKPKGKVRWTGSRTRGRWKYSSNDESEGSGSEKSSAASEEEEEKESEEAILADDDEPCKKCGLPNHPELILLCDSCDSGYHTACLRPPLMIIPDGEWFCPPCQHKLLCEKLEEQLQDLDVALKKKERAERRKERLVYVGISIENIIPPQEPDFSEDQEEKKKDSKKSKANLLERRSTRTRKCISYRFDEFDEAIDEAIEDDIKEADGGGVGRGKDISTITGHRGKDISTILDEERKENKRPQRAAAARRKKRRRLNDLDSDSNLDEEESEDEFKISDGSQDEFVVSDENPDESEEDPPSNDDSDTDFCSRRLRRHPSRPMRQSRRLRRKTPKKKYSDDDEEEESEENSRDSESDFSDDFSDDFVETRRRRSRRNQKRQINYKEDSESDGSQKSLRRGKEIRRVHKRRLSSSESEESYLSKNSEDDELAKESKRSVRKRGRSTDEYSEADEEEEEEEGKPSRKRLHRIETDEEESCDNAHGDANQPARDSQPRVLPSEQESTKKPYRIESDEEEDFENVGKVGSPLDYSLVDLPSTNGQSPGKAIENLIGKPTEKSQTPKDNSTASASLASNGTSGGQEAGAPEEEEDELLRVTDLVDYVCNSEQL


Key:
[1] = biological target: ATM (human Ataxia telangiectasia, mutated) (human) (UniProt Q13315); assay: co-IP; anti-ATM immunoprecipitation from U2OS extracts, benzonase, mock-treated cells (no IR)
[2] = biological target: ATM (human Ataxia telangiectasia, mutated) (human) (UniProt Q13315); assay: co-IP; anti-ATM immunoprecipitation from HEK293 extracts, chromatin solubilised by benzonase or by 450 mM NaCl; mock, 10 Gy IR, or IR with KU55933
[3] = biological target: ATM (human Ataxia telangiectasia, mutated) (human) (UniProt Q13315); assay: co-IP; anti-ATM immunoprecipitation from U2OS extracts, benzonase in the lysis buffer, 10 Gy IR, harvested 1 h after irradiation
[4] = biological target: ATM (human Ataxia telangiectasia, mutated) (human) (UniProt Q13315); assay: co-IP; anti-ATM immunoprecipitation from U2OS extracts, benzonase, 10 Gy IR with the ATM inhibitor KU55933 added an hour before irradiation
[5] = biological target: ATM (human Ataxia telangiectasia, mutated) (human) (UniProt Q13315); assay: co-IP; anti-ATM immunoprecipitation from soluble and chromatin fractions of U2OS cells cross-linked with 1% PFA (10 min, room temperature) before harvesting; benzonase; 10 Gy IR
[6] = biological target: T1, RSF1 (human Remodelling and Spacing Factor 1) (human); assay: co-IP; anti-RSF1 immunoprecipitation from U2OS extracts, benzonase; mock or 4 Gy IR, 1 h recovery

binding [6]	Molecule	binding [1]	binding [2]	binding [3]	binding [4]	binding [5]
–	SNF2H (SMARCA5), catalytic subunit of the RSF complex (from UniProt O60264 1-1052)	no binding (condition: mock-treated cells (no IR))	binds	binds	no binding (condition: with the ATM inhibitor KU55933)	–
binds	CENPS/MHF1 (human, endogenous) (from UniProt Q8N2Z9-1 1-138)	–	–	–	–	binds
–	HP1β (from UniProt P83916 1-185)	–	–	no binding	–	–
binds	CENPA (human) (from UniProt P49450 1-140)	–	–	–	–	–
–	BAZ1A (human) (from UniProt Q9NRL2 1-1556)	–	binds	binds	–	–
–	RSF1 (human Remodelling and Spacing Factor 1) (protein, UniProt Q96T23-1 1-1441) MATAAAAAAVMAPPGCPGSCPNFAVVCSFLERYGPLLDLPELPFPELERVLQAPPPDVGNGEVPKELVELHLKLMRKIGKSVTADRWEKYLIKICQEFNSTWAWEMEKKGYLEMSVECKLALLKYLCECQFDDNLKFKNIINEEDADTMRLQPIGRDKDGLMYWYQLDQDHNVRMYIEEQDDQDGSSWKCIVRNRNELAETLALLKAQIDPVLLKNSSQQDNSSRESPSLEDEETKKEEETPKQEEQKESEKMKSEEQPMDLENRSTANVLEETTVKKEKEDEKELVKLPVIVKLEKPLPENEEKKIIKEESDSFKENVKPIKVEVKECRADPKDTKSSMEKPVAQEPERIEFGGNIKSSHEITEKSTEETEKLKNDQQAKIPLKKREIKLSDDFDSPVKGPLCKSVTPTKEFLKDEIKQEEETCKRISTITALGHEGKQLVNGEVSDERVAPNFKTEPIETKFYETKEESYSPSKDRNIITEGNGTESLNSVITSMKTGELEKETAPLRKDADSSISVLEIHSQKAQIEEPDPPEMETSLDSSEMAKDLSSKTALSSTESCTMKGEEKSPKTKKDKRPPILECLEKLEKSKKTFLDKDAQRLSPIPEEVPKSTLESEKPGSPEAAETSPPSNIIDHCEKLASEKEVVECQSTSTVGGQSVKKVDLETLKEDSEFTKVEMDNLDNAQTSGIEEPSETKGSMQKSKFKYKLVPEEETTASENTEITSERQKEGIKLTIRISSRKKKPDSPPKVLEPENKQEKTEKEEEKTNVGRTLRRSPRISRPTAKVAEIRDQKADKKRGEGEDEVEEESTALQKTDKKEILKKSEKDTNSKVSKVKPKGKVRWTGSRTRGRWKYSSNDESEGSGSEKSSAASEEEEEKESEEAILADDDEPCKKCGLPNHPELILLCDSCDSGYHTACLRPPLMIIPDGEWFCPPCQHKLLCEKLEEQLQDLDVALKKKERAERRKERLVYVGISIENIIPPQEPDFSEDQEEKKKDSKKSKANLLERRSTRTRKCISYRFDEFDEAIDEAIEDDIKEADGGGVGRGKDISTITGHRGKDISTILDEERKENKRPQRAAAARRKKRRRLNDLDSDSNLDEEESEDEFKISDGSQDEFVVSDENPDESEEDPPSNDDSDTDFCSRRLRRHPSRPMRQSRRLRRKTPKKKYSDDDEEEESEENSRDSESDFSDDFSDDFVETRRRRSRRNQKRQINYKEDSESDGSQKSLRRGKEIRRVHKRRLSSSESEESYLSKNSEDDELAKESKRSVRKRGRSTDEYSEADEEEEEEEGKPSRKRLHRIETDEEESCDNAHGDANQPARDSQPRVLPSEQESTKKPYRIESDEEEDFENVGKVGSPLDYSLVDLPSTNGQSPGKAIENLIGKPTEKSQTPKDNSTASASLASNGTSGGQEAGAPEEEEDELLRVTDLVDYVCNSEQL	no binding (condition: mock-treated cells (no IR))	binds	binds	no binding (condition: with the ATM inhibitor KU55933)	binds
–	BAZ1B (human) (protein, UniProt Q9UIG0 1-1483) MAPLLGRKPFPLVKPLPGEEPLFTIPHTQEAFRTREEYEARLERYSERIWTCKSTGSSQLTHKEAWEEEQEVAELLKEEFPAWYEKLVLEMVHHNTASLEKLVDTAWLEIMTKYAVGEECDFEVGKEKMLKVKIVKIHPLEKVDEEATEKKSDGACDSPSSDKENSSQIAQDHQKKETVVKEDEGRRESINDRARRSPRKLPTSLKKGERKWAPPKFLPHKYDVKLQNEDKIISNVPADSLIRTERPPNKEIVRYFIRHNALRAGTGENAPWVVEDELVKKYSLPSKFSDFLLDPYKYMTLNPSTKRKNTGSPDRKPSKKSKTDNSSLSSPLNPKLWCHVHLKKSLSGSPLKVKNSKNSKSPEEHLEEMMKMMSPNKLHTNFHIPKKGPPAKKPGKHSDKPLKAKGRSKGILNGQKSTGNSKSPKKGLKTPKTKMKQMTLLDMAKGTQKMTRAPRNSGGTPRTSSKPHKHLPPAALHLIAYYKENKDREDKRSALSCVISKTARLLSSEDRARLPEELRSLVQKRYELLEHKKRWASMSEEQRKEYLKKKREELKKKLKEKAKERREKEMLERLEKQKRYEDQELTGKNLPAFRLVDTPEGLPNTLFGDVAMVVEFLSCYSGLLLPDAQYPITAVSLMEALSADKGGFLYLNRVLVILLQTLLQDEIAEDYGELGMKLSEIPLTLHSVSELVRLCLRRSDVQEESEGSDTDDNKDSAAFEDNEVQDEFLEKLETSEFFELTSEEKLQILTALCHRILMTYSVQDHMETRQQMSAELWKERLAVLKEENDKKRAEKQKRKEMEAKNKENGKVENGLGKTDRKKEIVKFEPQVDTEAEDMISAVKSRRLLAIQAKKEREIQEREMKVKLERQAEEERIRKHKAAAEKAFQEGIAKAKLVMRRTPIGTDRNHNRYWLFSDEVPGLFIEKGWVHDSIDYRFNHHCKDHTVSGDEDYCPRSKKANLGKNASMNTQHGTATEVAVETTTPKQGQNLWFLCDSQKELDELLNCLHPQGIRESQLKERLEKRYQDIIHSIHLARKPNLGLKSCDGNQELLNFLRSDLIEVATRLQKGGLGYVEETSEFEARVISLEKLKDFGECVIALQASVIKKFLQGFMAPKQKRRKLQSEDSAKTEEVDEEKKMVEEAKVASALEKWKTAIREAQTFSRMHVLLGMLDACIKWDMSAENARCKVCRKKGEDDKLILCDECNKAFHLFCLRPALYEVPDGEWQCPACQPATARRNSRGRNYTEESASEDSEDDESDEEEEEEEEEEEEEDYEVAGLRLRPRKTIRGKHSVIPPAARSGRRPGKKPHSTRRSQPKAPPVDDAEVDELVLQTKRSSRRQSLELQKCEEILHKIVKYRFSWPFREPVTRDEAEDYYDVITHPMDFQTVQNKCSCGSYRSVQEFLTDMKQVFTNAEVYNCRGSHVLSCMVKTEQCLVALLHKHLPGHPYVRRKRKKFPDRLAEDEGDSEPEAVGQSRGRRQKK	–	binds	binds	–	–
